The assay concerns the target human potassium-chloride cotransporter KCC4 (KCC4a) (human) (UniProt Q9Y666). The assay can be described thus: cryo-EM structure; single-particle cryo-EM of purified KCC4 in 0.02% GDN, 30 mmol/L Tris pH 8.0, in six ion conditions (150 mmol/L KCl, LiCl, NaCl, KNO3, NaNO3, or 140 mmol/L NaCl + 10 mmol/L RbCl); C2 symmetry applied; 2.38-2.58 Å; both purified.

No constants are given. Whether binding was seen depends on the method and setting. Some entries that bind do so weakly or less than the wild type.

B1: human potassium-chloride cotransporter KCC4 (KCC4a) (protein, UniProt Q9Y666 1-1083)
chain: MPTNFTVVPVEAHADGGGDETAERTEAPGTPEGPEPERPSPGDGNPRENSPFLNNVEVEQESFFEGKNMALFEEEMDSNPMVSSLLNKLANYTNLSQGVVEHEEDEESRRREAKAPRMGTFIGVYLPCLQNILGVILFLRLTWIVGVAGVLESFLIVAMCCTCTMLTAISMSAIATNGVVPAGGSYYMISRSLGPEFGGAVGLCFYLGTTFAGAMYILGTIEIFLTYISPGAAIFQAEAAGGEAAAMLHNMRVYGTCTLVLMALVVFVGVKYVNKLALVFLACVVLSILAIYAGVIKSAFDPPDIPVCLLGNRTLSRRSFDACVKAYGIHNNSATSALWGLFCNGSQPSAACDEYFIQNNVTEIQGIPGAASGVFLENLWSTYAHAGAFVEKKGVPSVPVAEESRASALPYVLTDIAASFTLLVGIYFPSVTGIMAGSNRSGDLKDAQKSIPTGTILAIVTTSFIYLSCIVLFGACIEGVVLRDKFGEALQGNLVIGMLAWPSPWVIVIGSFFSTCGAGLQSLTGAPRLLQAIARDGIVPFLQVFGHGKANGEPTWALLLTVLICETGILIASLDSVAPILSMFFLMCYLFVNLACAVQTLLRTPNWRPRFKFYHWTLSFLGMSLCLALMFICSWYYALSAMLIAGCIYKYIEYRGAEKEWGDGIRGLSLNAARYALLRVEHGPPHTKNWRPQVLVMLNLDAEQAVKHPRLLSFTSQLKAGKGLTIVGSVLEGTYLDKHMEAQRAEENIRSLMSTEKTKGFCQLVVSSSLRDGMSHLIQSAGLGGLKHNTVLMAWPASWKQEDNPFSWKNFVDTVRDTTAAHQALLVAKNVDSFPQNQERFGGGHIDVWWIVHDGGMLMLLPFLLRQHKVWRKCRMRIFTVAQVDDNSIQMKKDLQMFLYHLRISAEVEVVEMVENDISAFTYERTLMMEQRSQMLKQMQLSKNEQEREAQLIHDRNTASHTAAAARTQAPPTPDKVQMTWTREKLIAEKYRSRDTSLSGFKDLFSMKPDQSNVRRMHTAVKLNGVVLNKSQDAQLVLLNMPGPPKNRQGDENYMEFLEVLTEGLNRVLLVRGGGREVITIYS
In the case of B1, the binding entry was “binds”.

The values are drawn from article PMC13294203.
